pIC50: −log10 of the molar value. Some results were stated once for a whole list of compounds, not compound by compound.
Target: T1, FGFR3 protein (Homo sapiens, UniProt P22607)
T1 construct: purchased Reaction Biology 1068
Assay: FGFR3 enzyme assay (KinEASE-TK HTRF kinase assay)
Type: biochemical
Settings: 0.25 nM enzyme, ATP at Km, 15 min pre-incubation on ice, 30 min at 30° C.

Sequences of proteins named here, by UniProt entry; tags and fusion partners are left off. Residues count along the entry.
UniProt P22607, 23-806: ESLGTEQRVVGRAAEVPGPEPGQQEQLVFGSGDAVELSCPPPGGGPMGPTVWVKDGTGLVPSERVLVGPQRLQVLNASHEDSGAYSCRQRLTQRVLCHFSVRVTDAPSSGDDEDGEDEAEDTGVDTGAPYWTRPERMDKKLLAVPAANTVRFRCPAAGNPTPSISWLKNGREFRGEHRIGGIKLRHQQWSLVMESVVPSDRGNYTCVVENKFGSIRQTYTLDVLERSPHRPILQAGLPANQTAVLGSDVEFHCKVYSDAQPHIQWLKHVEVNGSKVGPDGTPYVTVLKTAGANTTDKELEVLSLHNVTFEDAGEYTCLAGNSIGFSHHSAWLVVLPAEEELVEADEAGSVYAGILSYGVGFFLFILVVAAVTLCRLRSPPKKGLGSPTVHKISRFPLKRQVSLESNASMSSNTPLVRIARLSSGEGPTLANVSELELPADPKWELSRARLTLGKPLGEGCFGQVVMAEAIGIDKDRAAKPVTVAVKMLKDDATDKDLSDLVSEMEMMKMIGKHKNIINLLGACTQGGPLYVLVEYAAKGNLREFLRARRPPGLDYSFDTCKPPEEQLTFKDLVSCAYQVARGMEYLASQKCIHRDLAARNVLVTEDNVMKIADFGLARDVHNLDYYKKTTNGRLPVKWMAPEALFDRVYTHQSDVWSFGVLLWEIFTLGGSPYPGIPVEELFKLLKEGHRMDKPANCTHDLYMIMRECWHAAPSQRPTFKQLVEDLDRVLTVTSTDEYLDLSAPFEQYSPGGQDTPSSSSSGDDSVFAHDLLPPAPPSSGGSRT

pIC50, > 6.46:
Cc1c(-c2cc(OC(C)c3cncc(C(F)F)c3)n3c(C#N)cnc3c2)nnn1C1CCN(C#N)CC1 (stereo not drawn) [Example 6, 7-[1-(1-Cyano-4-piperidyl)-5-methyl-triazol-4-yl]-5-[1-[5-(difluoromethyl)-3-pyridyl]ethoxy]imidazo [1,2-a]pyridine-3-carbonitrile]
Cc1c(-c2cc(OC(C)c3cncc4c3ccn4C)c3c(C#N)cnn3c2)nnn1C1CCN(C#N)CC1 (stereo not drawn) [Example 7, 6-[1-(1-Cyano-4-piperidyl)-5-methyl-triazol-4-yl]-4-[1-(1-methylpyrrolo[2,3-c]pyridin-4-yl)ethoxy]pyrazolo[1,5-a]pyridine-3-carbonitrile]
Cc1c(-c2cc(OC(C)c3ccccc3C(=O)N(C)C)c3c(C#N)cnn3c2)nnn1C1CCN(C#N)CC1 (stereo not drawn) [Example 8, 2-[1-[3-cyano-6-[1-(1-cyano-4-piperidyl)-5-methyl-triazol-4-yl]pyrazolo[1,5-a]pyridin-4-yl]oxyethyl]-N,N-dimethyl-benzamide]
CCn1ncc(C(C)Oc2cc(-c3nnn(C4CCN(C#N)CC4)c3C)cn3ncc(C#N)c23)n1 (stereo not drawn) [Example 9, 6-[1-(1-Cyano-4-piperidyl)-5-methyl-triazol-4-yl]-4-[1-(2-ethyltriazol-4-yl)ethoxy]pyrazolo[1,5-a]pyridine-3-carbonitrile]
Cc1cncc(C(C)Oc2cc(-c3nnn(C4CCN(C#N)CC4)c3C)cn3ncc(C#N)c23)c1 (stereo not drawn) [Example 10, 6-[1-(1-Cyano-4-piperidyl)-5-methyl-triazol-4-yl]-4-[1-(5-methyl-3-pyridyl)ethoxy]pyrazolo [1,5-a]pyridine-3-carbonitrile]
Cc1c(-c2cc(OC(C)c3cncc(C(F)F)c3)c3c(C#N)cnn3c2)nnn1C1CCN(C#N)CC1 (stereo not drawn) [Example 11, 6-[1-(1-Cyano-4-piperidyl)-5-methyl-triazol-4-yl]-4-[1-[5-(difluoromethyl)-3-pyridyl]ethoxy]pyrazolo [1,5-a]pyridine-3-carbonitrile]
Cc1c(-c2cc(OC(C)c3cc(Cl)cnn3)n3c(C#N)cnc3c2)nnn1C1CCN(C#N)CC1 (stereo not drawn) [Example 12, 5-[1-(5-Chloropyridazin-3-yl)ethoxy]-7-[1-(1-cyano-4-piperidyl)-5-methyl-triazol-4-yl]imidazo[1,2-a]pyridine-3-carbonitrile]
Cc1nnc(C(C)Oc2cc(-c3nnn(C4CCN(C#N)CC4)c3C)cn3ncc(C#N)c23)s1 (stereo not drawn) [Example 14, 6-[1-(1-Cyano-4-piperidyl)-5-methyl-triazol-4-yl]-4-[1-(5-methyl-1,3,4-thiadiazol-2-yl)ethoxy] pyrazolo[1,5-a]pyridine-3-carbonitrile]
Cc1c(-c2cc(OC(C)c3cn(C(C)C)nn3)n3c(C#N)cnc3c2)nnn1C1CCN(C#N)CC1 (stereo not drawn) [Example 15, 7-[1-(1-Cyano-4-piperidyl)-5-methyl-triazol-4-yl]-5-[1-(1-isopropyltriazol-4-yl)ethoxy]imidazo[1,2-a]pyridine-3-carbonitrile]
Cc1cncc(C(C)Oc2cc(-c3nnn(C4CCN(C#N)CC4)c3C)cn3ncc(C#N)c23)n1 (stereo not drawn) [Example 16, 6-[1-(1-Cyano-4-piperidyl)-5-methyl-triazol-4-yl]-4-[1-(6-methylpyrazin-2-yl)ethoxy]pyrazolo[1,5-a]pyridine-3-carbonitrile]
Cc1cncc(C(C)Oc2cc(-c3nnn(C4CCN(C#N)CC4)c3C)cc3ncc(C#N)n23)n1 (stereo not drawn) [Example 17, 7-[1-(1-Cyano-4-piperidyl)-5-methyl-triazol-4-yl]-5-[1-(6-methylpyrazin-2-yl)ethoxy]imidazo[1,2-a]pyridine-3-carbonitrile]
Cc1c(-c2cc(OC(CO)c3cncc4ccccc34)c3c(C#N)cnn3c2)nnn1C1CCN(C#N)CC1 (stereo not drawn) [Example 18, 6-[1-(1-cyano-4-piperidyl)-5-methyl-triazol-4-yl]-4-[2-hydroxy-1-(4-isoquinolyl)ethoxy] pyrazolo[1,5-a] pyridine-3-carbonitrile]
Cc1c(-c2cc(OC(C)c3ccccc3S(C)(=O)=O)c3c(C#N)cnn3c2)cnn1C1CCN(C#N)CC1 (stereo not drawn) [Example 19, 6-[1-(1-Cyano-4-piperidyl)-5-methyl-pyrazol-4-yl]-4-[1-(2-methylsulfonylphenyl)ethoxy]pyrazolo[1,5-a]pyridine-3-carbonitrile]
Cc1c(-c2cc(OC(C)c3cccc4ncsc34)n3c(C#N)cnc3c2)nnn1C1CCN(C#N)CC1 (stereo not drawn) [Example 20, 5-[1-(1,3-Benzothiazol-7-yl)ethoxy]-7-[1-(1-cyano-4-piperidyl)-5-methyl-triazol-4-yl]imidazo[1,2-a]pyridine-3-carbonitrile]
Cc1c(-c2cc(OC(C)c3cncc4cc(F)ccc34)c3c(C#N)cnn3c2)nnn1C1CCN(C#N)CC1 (stereo not drawn) [Example 21, 6-[1-(1-Cyano-4-piperidyl)-5-methyl-triazol-4-yl]-4-[1-(7-fluoro-4-isoquinolyl)ethoxy] pyrazolo[1,5-a] pyridine-3-carbonitrile]
Cc1c(-c2cc(OC(CF)c3ccc(F)cn3)c3c(C#N)cnn3c2)nnn1C1CCN(C#N)CC1 (stereo not drawn) [Example 22, 6-[1-(1-Cyano-4-piperidyl)-5-methyl-triazol-4-yl]-4-[2-fluoro-1-(5-fluoro-2-pyridyl)ethoxy]pyrazolo [1,5-a]pyridine-3-carbonitrile]
Cc1c(-c2cc(OC(c3ccc(F)cn3)C3CC3)c3c(C#N)cnn3c2)nnn1C1CCN(C#N)CC1 (stereo not drawn) [Example 23, 6-[1-(1-Cyano-4-piperidyl)-5-methyl-triazol-4-yl]-4-[cyclopropyl-(5-fluoro-2-pyridyl)methoxy] pyrazolo[1,5-a] pyridine-3-carbonitrile]
Cc1c(-c2cc(OC(C)c3cncc4ccccc34)c3c(C#N)cnn3c2)nnn1C1CCN(C#N)CC1 (stereo not drawn) [Example 24, 6-[1-(1-Cyano-4-piperidyl)-5-methyl-triazol-4-yl]-4-[1-(4-isoquinolyl)ethoxy] pyrazolo[1,5-a] pyridine-3-carbonitrile]
Cc1c(-c2cc(OC(C)c3cnn(C)n3)c3c(C#N)cnn3c2)nnn1C1CCN(C#N)CC1 (stereo not drawn) [Example 25, 6-[1-(1-Cyano-4-piperidyl)-5-methyl-triazol-4-yl]-4-[1-(2-methyltriazol-4-yl)ethoxy]pyrazolo[1,5-a]pyridine-3-carbonitrile]
Cc1c(-c2cc(OC(c3ccc(F)cn3)C3(F)CC3)c3c(C#N)cnn3c2)nnn1C1CCN(C#N)CC1 (stereo not drawn) [Example 26, 6-[1-(1-Cyano-4-piperidyl)-5-methyl-triazol-4-yl]-4-[(1-fluorocyclopropyl)-(5-fluoro-2-pyridyl)methoxy]pyrazolo [1,5-a]pyridine-3-carbonitrile]
Cc1c(-c2cc(OC(C)c3cccc4cnsc34)c3c(C#N)cnn3c2)nnn1C1CCN(C#N)CC1 (stereo not drawn) [Example 27, 4-[1-(1,2-Benzothiazol-7-yl)ethoxy]-6-[1-(1-cyano-4-piperidyl)-5-methyl-triazol-4-yl]pyrazolo[1,5-a]pyridine-3-carbonitrile]
Cc1c(-c2cc(OC(C)c3cccc4cnsc34)n3c(C#N)cnc3c2)nnn1C1CCN(C#N)CC1 (stereo not drawn) [Example 28, 5-[1-(1,2-Benzothiazol-7-yl)ethoxy]-7-[1-(1-cyano-4-piperidyl)-5-methyl-triazol-4-yl]imidazo[1,2-a]pyridine-3-carbonitrile]
Cc1c(-c2cc(OC(C)c3cccc(S(C)(=O)=O)c3)n3c(C#N)cnc3c2)nnn1C1CCN(C#N)CC1 (stereo not drawn) [Example 29, 7-[1-(1-Cyano-4-piperidyl)-5-methyl-triazol-4-yl]-5-[1-(3-methylsulfonylphenyl)ethoxy]imidazo[1,2-a]pyridine-3-carbonitrile]
Cc1c(-c2cc(OC(C)c3ccccc3-c3ccsn3)n3c(C#N)cnc3c2)nnn1C1CCN(C#N)CC1 (stereo not drawn) [Example 30, 7-[1-(1-Cyano-4-piperidyl)-5-methyl-triazol-4-yl]-5-[1-(2-isothiazol-3-ylphenyl)ethoxy]imidazo [1,2-a]pyridine-3-carbonitrile]
Cc1c(-c2cc(OC(C)C3CC(F)(F)C3)n3c(C#N)cnc3c2)nnn1C1CCN(C#N)CC1 (stereo not drawn) [Example 31, 7-[1-(1-Cyano-4-piperidyl)-5-methyl-triazol-4-yl]-5-[1-(3,3-difluorocyclobutyl)ethoxy] imidazo[1,2-a]pyridine-3-carbonitrile]
Cc1nnc(C(C)Oc2cc(-c3nnn(C4CCN(C#N)CC4)c3C)cc3ncc(C#N)n23)s1 (stereo not drawn) [Example 32, 7-[1-(1-Cyano-4-piperidyl)-5-methyl-triazol-4-yl]-5-[1-(5-methyl-1,3,4-thiadiazol-2-yl)ethoxy]imidazo[1,2-a]pyridine-3-carbonitrile]
Cc1cnsc1C(C)Oc1cc(-c2nnn(C3CCN(C#N)CC3)c2C)cn2ncc(C#N)c12 (stereo not drawn) [Example 33, 6-[1-(1-cyano-4-piperidyl)-5-methyl-triazol-4-yl]-4-[1-(4-methylisothiazol-5-yl)ethoxy]pyrazolo[1,5-a]pyridine-3-carbonitrile]
Cc1c(-c2cc(OC(C)c3ccccc3C(C)(C)O)c3c(C#N)cnn3c2)nnn1C1CCN(C#N)CC1 (stereo not drawn) [Example 34, 6-[1-(1-Cyano-4-piperidyl)-5-methyl-triazol-4-yl]-4-[1-[2-(1-hydroxy-1-methyl-ethyl)phenyl]ethoxy] pyrazolo[1,5-a] pyridine-3-carbonitrile]
Cc1c(-c2cc(OC(c3ccc(F)cn3)C(C)(C)C#N)c3c(Cl)cnn3c2)nnn1C1CCN(C#N)CC1 (stereo not drawn) [Example 35, 4-[4-[3-Chloro-4-[2-cyano-1-(5-fluoro-2-pyridyl)-2-methyl-propoxy]pyrazolo[1,5-a]pyridin-6-yl]-5-methyl-triazol-1-yl]piperidine-1-carbonitrile]
COCCNc1ncc(C(F)(F)F)cc1C(C)Oc1cc(-c2nnn(C3CCN(C#N)CC3)c2C)cn2ncc(C#N)c12 (stereo not drawn) [Example 36, 6-[1-(1-Cyano-4-piperidyl)-5-methyl-triazol-4-yl]-4-[1-[2-(2-methoxyethylamino)-5-(trifluoromethyl)-3-pyridyl]ethoxy]pyrazolo [1,5-a]pyridine-3-carbonitrile]

Reference: patent publication US12209086B2, “FGFR3 inhibitor compounds” (ELI LILLY AND COMPANY, priority 2021, dated 2025)
